# Measurements reported in PubChem BioAssay AID1259415 (National Center for Advancing Translational Sciences (NCATS), 2018).
# Screen size: about 410,000 compounds; about 18,000 (4.4%) were called active. Inconclusive results, whose numbers are uncertain, are shown with a selection of clear calls. Cut-off read from the data, not from the text of the source: active = activity change below about -60%; inconclusive = no clear call, values can overlap the other calls; inactive = above about -39%. A structure can be active in one record and inactive in another.
# Assay: qHTS Assay for inhibitors of the human cytomegalovirus (HCMV)
# Conditions: HFF cells, HCMV-luciferase reporter, 72 h; at 57.5 µM; stronger effect = lower value
# Method in brief: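 Human foreskin fibroblasts infected with luciferase-reporter HCMV at MOI 1 PFU/cell, compounds at two doses. Luciferase measured 72 h post infection; normalized to buffer-only basal and Salinomycin (10uM) controls.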
# % is set by controls: 0 for no effect and ±100 for the full control effect.
row,SMILES,"activity change, negative = inhibition"
1,CCOc1sc2nc(C)n(CC(=O)Nc3cccc(C)c3)c(=O)c2c1C,inactive: 1.96%
2,COc1ccc(N2CCN(CCCNC(=O)CN3CCN(Cc4ccccc4C)C3=O)CC2)cc1,inconclusive: -44.6%
3,COCCNC(=O)c1cccc(NS(=O)(=O)c2cccc3cccnc23)c1,inconclusive: -40%
4,CCc1nn(CC(=O)NCCC2=CCCCC2)c(=O)c2cc3cc(F)ccc3n12,inconclusive: -56%
5,Cc1ccc(C2=NN(C(=O)CSc3nnnn3C)C(c3ccco3)C2)cc1 (stereo not drawn),inconclusive: -43.1%
6,CCOC(=O)[C@]12CCC=C1N(Cc1cccc3ccccc13)C(=O)[C@H](CC(=O)NCc1ccc(OC)c(OC)c1)C2,active: -64.8%
7,Cc1sc(NC(=O)c2ccco2)c(C(c2ccccc2)N2CCC(C)CC2)c1C (stereo not drawn),inconclusive: -44%
8,CCn1ccnc1CN(C)C(=O)c1cc(COc2ccc(-n3cncn3)cc2)on1,inconclusive: -52.3%
9,c1ccc(-n2nnc3ccccc32)cc1,inconclusive: -59.7%
10,CN1CCc2c(sc(NC(=O)Cc3ccccc3)c2C(N)=O)C1,inactive: -30.8%
11,CCN1CCc2nc3sc(C(=O)Nc4cccc(Cl)c4C)c(N)c3cc2C1,inconclusive: -55%
12,COc1ccc(S(=O)(=O)N(CC(=O)N2CCN(C)CC2)c2ccc(C)cc2)cc1Br,inconclusive: -45.1%
13,CC1=C(C#N)C(/C=N/OCc2ccc(F)cc2Cl)CC(=O)N1 (stereo not drawn),active: -80%
14,CC(=O)N1CCOc2ccc(S(=O)(=O)NCCc3ccccc3)cc21,inactive: 8.21%
15,CCOC(=O)c1c(C)n(-c2ccccc2)c2ccc(OC(=O)c3ccccc3NC(=O)C(C)(C)C)cc12,active: -93.5%
16,Cc1ccc(OCC(O)Cn2c(=N)n(CCN3CCCCC3)c3ccccc32)cc1 (stereo not drawn),active: -82.4%
17,O=C(c1ccc(NS(=O)(=O)c2cccc(F)c2)cc1)N1CCCC1,inactive: -12.2%
18,COc1ccc(-c2cc(C(F)(F)F)n3nc(C(=O)NCCN4CCOCC4)cc3n2)cc1,inconclusive: -54.7%
19,COc1ccc(C2=NC(C)(C)N(CC(=O)Nc3ccc(F)c(F)c3)C2=O)cc1,inconclusive: -52.4%
20,COC(=O)c1ccc(C(C2C(=O)CC(C)(C)CC2=O)C2C(=O)CC(C)(C)CC2=O)cc1,inconclusive: -56.9%
21,CCc1ccc(-c2csc(NC(=O)c3cccnc3)n2)cc1,inconclusive: -51.3%
22,CC(=O)c1ccc(NC(=O)Cn2c(=O)n(Cc3ccco3)c(=O)c3sc4ccccc4c32)cc1,inconclusive: -47.1%

row,SMILES,"activity change, negative = inhibition"
1,COc1ccc(Cl)cc1S(=O)(=O)N(C)CC(=O)N1CCOCC1,inactive: -38.6%
2,COc1ccc(-c2nsc(NC(=O)c3oc4cc(C)c(C)cc4c3C)n2)cc1,inconclusive: -48%
3,CCN1C(=O)/C(=C/c2ccc(C)o2)N(C)C1=S,inconclusive: -46.1%
4,CC12CC[C@H]3[C@@H](CCC4(O)C[C@H](O)CCC34/C=N/NC(=O)c3ccccc3Cl)C1(O)CCC2C1=CC(=O)OC1 (stereo partly drawn),inactive: -31.6%
5,CCOC(=O)C1CCCN(C(=O)c2cccc3ccccc23)CC1 (stereo not drawn),inconclusive: -56.2%
6,Cc1c(Br)c([N+](=O)[O-])nn1CC(=O)Nc1ccc2nc3n(c(=O)c2c1)CCCC3,inactive: -25.8%
7,FC(F)(F)c1ccccc1-c1ccc2nncn2c1,inactive: 1.13%
8,CCOC(=O)N1CCN(C2=Nc3cccc4cccc2c34)CC1,inactive: -16.7%
9,CC(C)(C)c1ccc(-c2nc3cc(N)ccc3o2)cc1,inactive: -13.6%
10,CN(C)S(=O)(=O)c1cccc(C(=O)Nc2cc(Cl)ccc2O)c1,inactive: 35.1%
11,O=[N+]([O-])c1ccc(Oc2ccc(C(F)(F)F)cn2)cc1,inactive: -0.812%
12,CC1(C)CSC(=NCCc2ccccc2)N1C(=O)c1ccc(C#N)cc1,inconclusive: -58.1%
13,COc1ccc(/C=N/Nc2nnc(Cc3ccc(OC)c(OC)c3)c(=O)[nH]2)cc1,active: -68%
14,CCN(CC(=O)Nc1c(F)cccc1F)C(=O)c1ccc(-c2ccccc2)cc1,inconclusive: -52.5%
15,NC(=O)/C(=C/c1cccnc1)NC(=O)c1ccccc1,inactive: 3.58%
16,C=CCN(CC=C)S(=O)(=O)c1ccc2nc(NC(=O)C3CCCO3)sc2c1 (stereo not drawn),inconclusive: -42.9%
17,Cc1c(NC(=S)NC(=O)c2ccccc2Br)c(=O)n(-c2ccccc2)n1C,inactive: -2.96%
18,O=C(N/N=C/c1ccc(-c2cccc(C(F)(F)F)c2)o1)c1ccccc1O,inactive: -25%
19,N=c1n(CCN2CCCCC2)c2ccccc2n1CC(O)c1cccc(Br)c1 (stereo not drawn),inconclusive: -59.9%
20,CCCCC(=O)N1CCN(c2nc3ccc(OCC)cc3s2)CC1,inactive: -18.3%
21,CCCCn1c(SCC(=O)N2c3ccccc3Sc3ccccc32)nc2c1c(=O)n(C)c(=O)n2C,inactive: 2.66%

# Quoted at random: three entries already listed
row,SMILES,"activity change, negative = inhibition"
6,Cc1c(Br)c([N+](=O)[O-])nn1CC(=O)Nc1ccc2nc3n(c(=O)c2c1)CCCC3,inactive: -25.8%
20,CCCCC(=O)N1CCN(c2nc3ccc(OCC)cc3s2)CC1,inactive: -18.3%
14,CCN(CC(=O)Nc1c(F)cccc1F)C(=O)c1ccc(-c2ccccc2)cc1,inconclusive: -52.5%
